From the supplement of paper PMC3334620
In all, about 33,000 sequences were measured (“E-score (-0.5 to 0.5)”: median about -0.015, highest 2% from about 0.3 on). The list shows a part of the results.

molecular target: T1, Abf1 (UniProt P14164); assay: PBM E-score (8-mer binding enrichment) (E-score (-0.5 to 0.5)); higher = stronger / more preferred TF binding; details: protein concentration: 200 nM; construct: GST-full length
T1 sequence: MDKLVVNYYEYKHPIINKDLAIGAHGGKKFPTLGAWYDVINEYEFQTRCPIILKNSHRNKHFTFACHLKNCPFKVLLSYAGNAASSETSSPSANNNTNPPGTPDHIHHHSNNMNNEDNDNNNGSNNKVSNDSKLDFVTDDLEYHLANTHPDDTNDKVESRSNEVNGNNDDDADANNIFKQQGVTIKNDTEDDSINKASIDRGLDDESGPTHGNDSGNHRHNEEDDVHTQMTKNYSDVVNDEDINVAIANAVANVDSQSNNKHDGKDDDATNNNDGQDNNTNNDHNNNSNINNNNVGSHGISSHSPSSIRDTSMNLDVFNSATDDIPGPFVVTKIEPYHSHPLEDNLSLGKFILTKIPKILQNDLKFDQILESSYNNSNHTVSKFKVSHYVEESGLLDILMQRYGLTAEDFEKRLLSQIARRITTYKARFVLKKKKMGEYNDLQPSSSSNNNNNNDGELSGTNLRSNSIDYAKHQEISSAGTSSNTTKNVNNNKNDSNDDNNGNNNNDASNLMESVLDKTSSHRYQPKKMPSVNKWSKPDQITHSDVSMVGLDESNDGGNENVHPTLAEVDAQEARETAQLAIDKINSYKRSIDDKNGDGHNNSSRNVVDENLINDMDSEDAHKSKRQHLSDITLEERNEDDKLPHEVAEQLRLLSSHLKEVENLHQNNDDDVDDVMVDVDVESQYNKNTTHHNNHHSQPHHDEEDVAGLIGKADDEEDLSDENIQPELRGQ
Method in brief: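 Full-length yeast transcription factors or their DNA-binding domains, GST-tagged and expressed with PURExpress, were applied at about 100-200 nM to universal all-10-mer Agilent arrays. These arrays had been made double-stranded by primer extension on fresh or once-stripped slides. Detection used fluorescent anti-GST, normalisation used masliner, and E-scores for ungapped eight-base words pooled with reverse complements came from the Universal PBM Analysis Suite.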

Row | Sequence | PBM E-score
1 | AATACCGT | 0.193
2 | TCAGTACA | 0.0618
3 | GCCGTGCC | 0.208
4 | CTACGAAA | 0.122
5 | CATAAAGA | 0.0994
6 | AGCACCAC | -0.214
7 | ATGTTCCC | -0.0789
8 | AACTGCAA | -0.0625
9 | CGGATGCA | -0.282
10 | GGTGAGAC | -0.00153
11 | GAATTTGC | 0.0129
12 | AGTCTTCC | -0.0669
13 | CCCCGTCA | -0.0762
14 | ACGTATAA | 0.304
15 | ACCCCTAG | -0.18
16 | ATTCCAGC | -0.192
17 | CGACAATC | 0.0211
18 | ACTAAAGT | 0.0505
19 | AGGAAAGC | -0.197
20 | ATAGGCGC | 0.0148
21 | GAACTCAC | -0.00017
22 | CTTGAAGC | 0.00419
23 | AAAACTGA | -0.159
24 | GATGGCAC | -0.174
25 | AGTCTGAC | 1e-05

Row | Sequence | PBM E-score
26 | CACGATTA | 0.247
27 | ATCCTTCG | -0.102
28 | GGTGGGTA | -0.16
29 | CGCGACCA | 0.0773
30 | TCAGCGAA | -0.107
31 | CAGCTTCA | 0.0428
32 | AGATTATA | -0.00367
33 | ATTCTCCG | 0.0487
34 | AAACACGA | 0.0784
35 | ATTTTGTA | 0.226
36 | CACACGAG | 0.107
37 | CGTAGCGA | 0.126
38 | ACTCGAAT | -0.104
39 | GAGTCCAC | -0.108
40 | CTAACGCA | 0.0971
41 | CCGCAAGG | -0.214
42 | ATTGCGGA | -0.0442
43 | AAATGGAA | 0.0995
44 | ATTTAATA | 0.251
45 | AAGACGCT | -0.215
46 | TATGAACA | 0.028
47 | GCGAGGCA | -0.0982
48 | TTATCAAA | 0.242
49 | GCGCTACC | -0.0802
50 | AAGAAGCA | 0.0711

7 records drawn at random from those above:
Row | Sequence | PBM E-score
3 | GCCGTGCC | 0.208
20 | ATAGGCGC | 0.0148
43 | AAATGGAA | 0.0995
13 | CCCCGTCA | -0.0762
33 | ATTCTCCG | 0.0487
19 | AGGAAAGC | -0.197
47 | GCGAGGCA | -0.0982

The results go on:

Row | Sequence | PBM E-score
51 | CGAGAAAA | 0.0842
52 | CTAATCGC | 0.0239
53 | CAGGGCTC | -0.276
54 | CACAAAAG | -0.0552
55 | AGTAATAT | 0.212
56 | CTCAGACC | -0.207
57 | GTGAGGTA | -0.0243
58 | CAGCCACC | -0.0895
59 | CTACAGTA | -0.0874
60 | CCTCGACA | 0.116
61 | CTGTCAGA | -0.0315
62 | GACAATAC | 0.202
63 | CTGCAATC | -0.117
64 | TAAGATGA | 0.182
65 | ATCCGTAG | 0.153
66 | ATGGAGAA | -0.0924
67 | AGTCCGAC | -0.0295
68 | AGAACGGA | 0.0362
69 | AGCGTTAC | -0.0165
70 | GGAAATAC | 0.168
71 | ACGCAACG | 0.0914
72 | CCCCAGAC | -0.295
73 | CACCGTAA | 0.101
74 | ATATAGAC | 0.108
75 | ATTAGAGG | 0.071

Row | Sequence | PBM E-score
76 | CCCAGGTC | -0.113
77 | ATTCTTAC | 0.0969
78 | CCTGCGCC | -0.146
79 | ACTCAAAA | 0.128
80 | CACCTCGA | 0.122
81 | AGATGGAT | -0.108
82 | AGTCGTTC | 0.212
83 | CATCTCTC | 0.0245
84 | AAAACTCG | 0.118
85 | TCACTGAA | 0.145
86 | AACATTGG | -0.301
87 | ATAGCTAC | 0.0141
88 | ACAATAAA | 0.163
89 | CCCGTTAA | -0.0331
90 | GCTCGAGA | -0.143
91 | ACGACGCT | 0.129
92 | CGACGTCC | 0.166
93 | AGGTGTTA | 0.0175
94 | AGACATCA | 0.142
95 | CAGGGTTA | -0.0175
96 | ACTGTCAC | 0.283
97 | GTTGTACA | 0.123
98 | GGCCATGA | -0.13
99 | GCTTATGA | -0.00103
100 | GCCGTTGA | 0.173

Row | Sequence | PBM E-score
101 | GAGAACGA | 0.153
102 | CGGGGTCC | -0.0747
103 | AGATCTCA | 0.121
104 | GCTCGATA | 0.0476
105 | CATCGACG | 0.205
106 | AGGCATTA | 0.0291
107 | GGCTGTAA | 0.0297
108 | GTAGTGAC | 0.35
109 | CGCATCCA | 0.00065
110 | AAGGGTCG | 0.237
111 | AAGTTGTA | 0.162
112 | CCACATCG | 0.0703
113 | CGGGGATA | -0.112
114 | TCTCTGCA | 0.0379
115 | TCTGAAGA | -0.139
116 | ACGCCACC | -0.202
117 | ATAATTTG | 0.245
118 | AAACAACA | 0.0105
119 | CGATTATC | 0.241
120 | TCGTAAAA | 0.263
121 | CCTACGAC | 0.288
122 | CGCTGAGC | 0.0156
123 | CCAACCAA | -0.0984
124 | ACACGGCC | -0.0937
125 | ACTAGCCG | 0.0194

Row | Sequence | PBM E-score
126 | CCTCTGCA | -0.0356
127 | CAGCCCTC | -0.203
128 | AGGCGGTG | -0.168
129 | CTATGGCA | -0.239
130 | TCATGCCA | -0.0271
131 | CCGTTGAG | 0.0935
132 | ATGGCACA | -0.196
133 | CTCTCCAA | -0.172
134 | TCTTTTAA | 0.169
135 | ACTAACTA | 0.061
136 | CCGGAGGA | -0.147
137 | ATGGGCTA | 0.161
138 | AAGTCTCG | 0.115
139 | CAAAAGTA | 0.118
140 | CCGCGGGA | -0.0132
141 | ACCGTAAG | 0.226
142 | GACCGAAA | 0.0999
143 | GGTTTTTA | -0.0615
144 | AGTTGGGC | -0.0705
145 | AGTCAATG | -0.163
146 | GATCGGGA | -0.164
147 | CTAAATAG | 0.0435
148 | CGTAGTAC | 0.183
149 | CCTGTGTC | -0.275
150 | AGGGGAAG | -0.0574

Row | Sequence | PBM E-score
151 | CTGCATCA | 0.0347
152 | GCCTCCGA | -0.112
153 | ATCAGCGC | 0.0308
154 | AGACACTG | -0.0632
155 | CCGCTCAA | -0.119
156 | ATATACAC | -0.0184
157 | AACAACGG | 0.274
158 | CCTACTTC | 0.0403
159 | AAAGGGGT | -0.188
160 | CCGGTCAA | 0.0385
161 | CGGCACCC | -0.145
162 | CATCGCGA | 0.2
163 | CAAGACTC | -0.0848
164 | ATCTCAAG | 0.0391
165 | AGGCTTGA | -0.211
166 | CGACGTGA | 0.297
167 | AGCTCAAA | 0.148
168 | GGAGGAAC | -0.218
169 | CGGTCAAA | 0.109
170 | ATAAGGCG | -0.0135
171 | CGTAGTCA | 0.165
172 | TACAGAAA | 0.02
